For one molecule, binding results are on record in patent publication CN101123983A.

By UniProt entry, the sequences of proteins in these tests, tags left out. Where a name states a change or a piece, a line headed by the entry shows the natural chain unless it says otherwise.
UniProt P54764: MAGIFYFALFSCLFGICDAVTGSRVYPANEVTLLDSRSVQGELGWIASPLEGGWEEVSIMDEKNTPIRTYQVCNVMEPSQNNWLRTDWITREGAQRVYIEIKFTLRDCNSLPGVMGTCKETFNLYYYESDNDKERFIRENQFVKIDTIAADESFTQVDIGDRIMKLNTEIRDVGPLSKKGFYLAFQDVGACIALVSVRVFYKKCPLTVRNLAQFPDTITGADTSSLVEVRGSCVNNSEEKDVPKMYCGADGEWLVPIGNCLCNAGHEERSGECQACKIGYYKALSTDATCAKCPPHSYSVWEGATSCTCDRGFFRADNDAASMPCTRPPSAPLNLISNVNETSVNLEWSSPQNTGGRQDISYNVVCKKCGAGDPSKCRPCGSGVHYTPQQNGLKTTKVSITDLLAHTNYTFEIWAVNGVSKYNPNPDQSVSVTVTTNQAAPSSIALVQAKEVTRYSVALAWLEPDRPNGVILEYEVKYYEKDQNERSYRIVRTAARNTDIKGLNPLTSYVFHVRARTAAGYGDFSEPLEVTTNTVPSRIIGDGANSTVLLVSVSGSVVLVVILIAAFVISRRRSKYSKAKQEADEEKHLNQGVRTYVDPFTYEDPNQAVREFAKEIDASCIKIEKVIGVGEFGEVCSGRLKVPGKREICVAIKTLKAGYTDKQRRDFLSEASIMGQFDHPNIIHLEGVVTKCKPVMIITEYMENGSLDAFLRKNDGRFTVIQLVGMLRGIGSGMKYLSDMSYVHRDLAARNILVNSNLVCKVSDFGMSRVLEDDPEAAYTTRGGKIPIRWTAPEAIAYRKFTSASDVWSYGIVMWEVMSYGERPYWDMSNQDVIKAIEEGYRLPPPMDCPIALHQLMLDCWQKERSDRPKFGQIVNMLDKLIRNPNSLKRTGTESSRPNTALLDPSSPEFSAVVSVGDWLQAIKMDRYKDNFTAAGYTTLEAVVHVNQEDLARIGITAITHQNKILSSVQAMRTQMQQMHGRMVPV

Results are given in words; binding and its absence hold for the method and conditions named. Some binding calls cover weakened binding; strength is not graded here.

The test has as its target 人EphA4-His融合蛋白 (human EphA4 extracellular domain fused to a histidine tag) (human) (UniProt P54764). The experiment in a line: secondary screen of combination variant Fabs: activity ELISA on coated human EphA4-His, normalised by Fab quantitation ELISA. On the technique in general: An ELISA detects its analyte on a solid surface through an enzyme-linked reagent.

B1: 8B4 (Fab, V domains shown)
VH: QVQLLQSGAEVKKPGASVKVPCKASGYTFTSRAMSWVRQAPGQGLEWMGWINTNTGNPTYAQGFTGRFVFSLDTSVSTAYLQISSLKAEDTAVYYCARVRLTVYGDGMDVWGQGTLVTVSS
VL: EIVLTQSPATLSVSPGERATLSCRASQSVSSNPAWYQQKPGQAPRLLIYGLSTRATGIPDRFSASGSGTDFTLTISRVEPEDFAVYYCQQYGPSWTFGQGTKVEIK
B1: the binding result is recorded as “binds”.
